At least one compound was matched to its structure with a doubt left.
Tested on: RPE1-hTERT Cas9 TP53−/− parental (WT) and CCNE1-overexpressing clones
Experiment: Dose-response proliferation assay (IncuCyte confluency), RPE1-hTERT parental vs CCNE1-overexpressing clones
Assay type: cell-based
Conditions: dose titration, FIG. 3C

Cc1ccc(O)c(C)c1-n1c(N)c(C(N)=O)c2cc(Cl)cnc21 (single isomer, unassigned) [Compound 133, S-2-amino-5-chloro-1-(3-hydroxy-2,6-dimethyl-phenyl) pyrrolo[2,3-b]pyridine-3-carboxamide]
sensitivity (cell viability) of CCNE1-overexpressing cells versus corresponding WT cells: more sensitive

— patent US12435090B2, “Compounds, pharmaceutical compositions, and methods of preparing compounds and of their use” (Repare Therapeutics Inc., priority 2021, dated 2025)
